Experimental findings from the supplement of paper PMC4604168 (melanoma cell lines) are described below.

This is one part of the list. Single values are uncertain, as repeats are few or missing.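 The apoptosis fraction was the count of cleaved-PARP antibody-stained nuclei relative to all DNA-stained nuclei, imaged in 1,536-well plates. Screening doses were set so most cells survived, and baseline and induced cleaved-PARP levels vary greatly across cell lines.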

The experiment deals with CBRC017 (line from a melanoma biopsy). The experiment in a line: cleaved PARP positive nuclei fraction relative to DMSO control; melanoma cells; higher = more apoptosis. The following applies: library dose: low library concentration; 72 h.
In the case of `Nc1ncn([C@H]2C[C@H](O)[C@@H](CO)O2)c(=O)n1` [decitabine] + Cc1cc(N2CCOCC2)cc2[nH]c(-c3c(NC[C@@H](O)c4cccc(Cl)c4)cc[nH]c3=O)nc12 [BMS536924] (first compound 0.1 µM, partner dose 0.2 µM), the “cleaved PARP positive nuclei fraction” value was 79.2%.
In the case of `Cn1c(=O)n(-c2ccc(C(C)(C)C#N)cc2)c2c3cc(-c4cnc5ccccc5c4)ccc3ncc21` + NCC(=O)Nc1ccc(-n2nc(C(F)(F)F)cc2-c2ccc3c(ccc4ccccc43)c2)cc1 [OSU03012] (first compound 0.004 µM, partner dose 1 µM) it was 75.8%; in that of `CS(=O)(=O)CCNCc1ccc(-c2ccc3ncnc(Nc4ccc(OCc5cccc(F)c5)c(Cl)c4)c3c2)o1` [lapatinib] + O=C(Nc1cccc(Cl)c1)Nc1ncc(CCNc2ncnc3ccsc23)s1 [SNS314] (first compound 0.8 µM, partner dose 0.0008 µM), 227%; in that of `CN1CCN(c2ccc3nc(-c4c(N)c5c(F)cccc5[nH]c4=O)[nH]c3c2)CC1` [Dovitinib] + CN(C)S(=O)(=O)c1ccc2c(c1)/C(=C/c1cc3c([nH]1)CCCC3)C(=O)N2 [SU6656] (first compound 0.1 µM, partner dose 0.4 µM), 86.8%.
The figure for `C[C@@H](Oc1cc(-c2cnn(C3CCNCC3)c2)cnc1N)c1c(Cl)ccc(F)c1Cl` [Crizotinib] + Cn1cncc1[C@@](N)(c1ccc(Cl)cc1)c1ccc2c(c1)c(-c1cccc(Cl)c1)cc(=O)n2C [tipifarnib] (first compound 0.2 µM, partner dose 0.01 µM) is 106%.
Regarding `CO[C@H]1C[C@@H]2CC[C@@H](C)[C@@](O)(O2)C(=O)C(=O)N2CCCC[C@H]2C(=O)O[C@H]([C@H](C)C[C@@H]2CC[C@@H](OCCO)[C@H](OC)C2)CC(=O)[C@H](C)/C=C(\C)[C@@H](O)[C@@H](OC)C(=O)[C@H](C)C[C@H](C)/C=C/C=C/C=C/1C` [everolimus] + O=C(Nc1cccc(Cl)c1)Nc1ncc(CCNc2ncnc3ccsc23)s1 [SNS314] (first compound 0.02 µM, partner dose 0.0008 µM), the “cleaved PARP positive nuclei fraction” value stood at 151%.
The figure for `O=C(O)c1ccc2c(c1)nc(Nc1cccc(Cl)c1)c1ccncc12` + NC(=O)Nc1cc(-c2cccc(F)c2)sc1C(=O)N[C@H]1CCCNC1 [AZD7762] (first compound 0.4 µM, partner dose 0.02 µM) is 205%; for `Cn1c(=O)n(-c2ccc(C(C)(C)C#N)cc2)c2c3cc(-c4cnc5ccccc5c4)ccc3ncc21` + O=C(O)c1ccc(-c2c[nH]c3ncc(-c4ccccc4)cc23)cc1C1CCCC1 [GSK650394] (first compound 0.004 µM, partner dose 0.16 µM) it is 110%; for `O=C(O)c1ccc2c(c1)nc(Nc1cccc(Cl)c1)c1ccncc12` + O=C(O)c1ccc(-c2c[nH]c3ncc(-c4ccccc4)cc23)cc1C1CCCC1 [GSK650394] (first compound 0.4 µM, partner dose 0.16 µM) it is 215%.
The figure for `CC(C)C[C@H](NC(=O)[C@H](Cc1ccccc1)NC(=O)c1cnccn1)B(O)O` [Bortezomib] + O=C(CCCCCCC(=O)Nc1ccccc1)NO [vorinostat] (first compound 0.001 µM, partner dose 0.08 µM) is 393%; for `O=C(O)c1ccc2c(c1)nc(Nc1cccc(Cl)c1)c1ccncc12` + O=C(Nc1cccc(Cl)c1)Nc1ncc(CCNc2ncnc3ccsc23)s1 [SNS314] (first compound 0.4 µM, partner dose 0.0008 µM) it is 168%; for `Nc1nc(F)nc2c1ncn2[C@@H]1O[C@H](CO)[C@@H](O)[C@@H]1O` [fludarabine] + C=CCn1c(=O)c2cnc(Nc3ccc(N4CCN(C)CC4)cc3)nc2n1-c1cccc(C(C)(C)O)n1 [MK1775] (first compound 0.2 µM, partner dose 0.02 µM) it is 102%.
Consider `Nc1ccn([C@@H]2O[C@H](CO)[C@@H](O)C2(F)F)c(=O)n1` [gemcitabine] + COc1cc(Nc2ncc(F)c(Nc3ccc4c(n3)NC(=O)C(C)(C)O4)n2)cc(OC)c1OC [Tamatinib] (first compound 0.0004 µM, partner dose 0.4 µM), for which the “cleaved PARP positive nuclei fraction” value was 105%.
In the case of `Cn1c(=O)n(-c2ccc(C(C)(C)C#N)cc2)c2c3cc(-c4cnc5ccccc5c4)ccc3ncc21` + COc1cc2c(Oc3ccc4[nH]c(C)cc4c3F)ncnc2cc1OCCCN1CCCC1 [cediranib] (first compound 0.004 µM, partner dose 0.4 µM) it was 91.9%; in that of `Cc1cc(Nc2cc(N3CCN(C)CC3)nc(/C=C/c3ccccc3)n2)n[nH]1` + NC(=O)Nc1cc(-c2cccc(F)c2)sc1C(=O)N[C@H]1CCCNC1 [AZD7762] (first compound 0.04 µM, partner dose 0.02 µM), 121%; in that of `Nc1nc(F)nc2c1ncn2[C@@H]1O[C@H](CO)[C@@H](O)[C@@H]1O` [fludarabine] + O=C(Nc1cccc(Cl)c1)Nc1ncc(CCNc2ncnc3ccsc23)s1 [SNS314] (first compound 0.2 µM, partner dose 0.0008 µM), 104%.
In the case of `CS(=O)(=O)CCNCc1ccc(-c2ccc3ncnc(Nc4ccc(OCc5cccc(F)c5)c(Cl)c4)c3c2)o1` [lapatinib] + CN(NC(=O)CC(=O)NN(C)C(=S)c1ccccc1)C(=S)c1ccccc1 [STA4783] (first compound 0.8 µM, partner dose 0.006 µM) it was 228%.
In the case of `CC(C)C[C@H](NC(=O)[C@H](Cc1ccccc1)NC(=O)c1cnccn1)B(O)O` [Bortezomib] + CO[C@@H]1[C@H](N(C)C(=O)c2ccccc2)C[C@H]2O[C@]1(C)n1c3ccccc3c3c4c(c5c6ccccc6n2c5c31)C(=O)NC4 [Midostaurin] (first compound 0.001 µM, partner dose 0.08 µM) it was 432%.
For the compound `C[C@@H](Oc1cc(-c2cnn(C3CCNCC3)c2)cnc1N)c1c(Cl)ccc(F)c1Cl` [Crizotinib] + O=C(O)c1ccc(-c2c[nH]c3ncc(-c4ccccc4)cc23)cc1C1CCCC1 [GSK650394] (first compound 0.2 µM, partner dose 0.16 µM), the “cleaved PARP positive nuclei fraction” value turned out to be 109%.
In the case of `CS(=O)(=O)CCNCc1ccc(-c2ccc3ncnc(Nc4ccc(OCc5cccc(F)c5)c(Cl)c4)c3c2)o1` [lapatinib] + NC(=O)Nc1cc(-c2cccc(F)c2)sc1C(=O)N[C@H]1CCCNC1 [AZD7762] (first compound 0.8 µM, partner dose 0.02 µM) it was 116%.
Consider `CNC(=O)c1cc(Oc2ccc(NC(=O)Nc3ccc(Cl)c(C(F)(F)F)c3)cc2)ccn1` [sorafenib] + NC(=O)Nc1cc(-c2cccc(F)c2)sc1C(=O)N[C@H]1CCCNC1 [AZD7762] (first compound 0.4 µM, partner dose 0.02 µM), for which the “cleaved PARP positive nuclei fraction” value was found to be 195%.
As for `CN1CCN(c2ccc3nc(-c4c(N)c5c(F)cccc5[nH]c4=O)[nH]c3c2)CC1` [Dovitinib] + NCC(=O)Nc1ccc(-n2nc(C(F)(F)F)cc2-c2ccc3c(ccc4ccccc43)c2)cc1 [OSU03012] (first compound 0.1 µM, partner dose 1 µM), the “cleaved PARP positive nuclei fraction” value worked out at 238%.
The figure for `C=C(c1ccc(C(=O)O)cc1)c1cc2c(cc1C)C(C)(C)CCC2(C)C` [Bexarotene] + NC(=O)Nc1cc(-c2cccc(F)c2)sc1C(=O)N[C@H]1CCCNC1 [AZD7762] (first compound 2 µM, partner dose 0.02 µM) is 123%.
In the case of `Cn1c(=O)n(-c2ccc(C(C)(C)C#N)cc2)c2c3cc(-c4cnc5ccccc5c4)ccc3ncc21` + Cn1cncc1[C@@](N)(c1ccc(Cl)cc1)c1ccc2c(c1)c(-c1cccc(Cl)c1)cc(=O)n2C [tipifarnib] (first compound 0.004 µM, partner dose 0.01 µM) it was 120%; in that of `C[C@@H](Oc1cc(-c2cnn(C3CCNCC3)c2)cnc1N)c1c(Cl)ccc(F)c1Cl` [Crizotinib] + CN(NC(=O)CC(=O)NN(C)C(=S)c1ccccc1)C(=S)c1ccccc1 [STA4783] (first compound 0.2 µM, partner dose 0.006 µM), 256%.
For the compound `CC(C)C[C@H](NC(=O)[C@H](Cc1ccccc1)NC(=O)c1cnccn1)B(O)O` [Bortezomib] + COc1cc2c(Oc3ccc4[nH]c(C)cc4c3F)ncnc2cc1OCCCN1CCCC1 [cediranib] (first compound 0.001 µM, partner dose 0.4 µM), the “cleaved PARP positive nuclei fraction” value was determined as 191%.
In the case of `Cc1cc(Nc2cc(N3CCN(C)CC3)nc(/C=C/c3ccccc3)n2)n[nH]1` + Cc1cc(N2CCOCC2)cc2[nH]c(-c3c(NC[C@@H](O)c4cccc(Cl)c4)cc[nH]c3=O)nc12 [BMS536924] (first compound 0.04 µM, partner dose 0.2 µM) it was 123%; in that of `C[C@@H](Oc1cc(-c2cnn(C3CCNCC3)c2)cnc1N)c1c(Cl)ccc(F)c1Cl` [Crizotinib] + CC1(C)NC(=O)N(c2ccc([N+](=O)[O-])c(C(F)(F)F)c2)C1=O [nilutamide] (first compound 0.2 µM, partner dose 1 µM), 82.1%.
In the case of `Cn1c(=O)n(-c2ccc(C(C)(C)C#N)cc2)c2c3cc(-c4cnc5ccccc5c4)ccc3ncc21` + NC(=O)Nc1cc(-c2cccc(F)c2)sc1C(=O)N[C@H]1CCCNC1 [AZD7762] (first compound 0.004 µM, partner dose 0.02 µM) it was 96.8%.
